Laboratory results published in publication PMC11700839.
No constants are given. Whether binding was seen depends on the method and setting. In cells and extracts the contact can be indirect. Some results given as binding are weak or reduced against the parent protein; the word gives no strength.

By UniProt entry, the sequences of proteins in these tests, tags left out.
UniProt Q12778: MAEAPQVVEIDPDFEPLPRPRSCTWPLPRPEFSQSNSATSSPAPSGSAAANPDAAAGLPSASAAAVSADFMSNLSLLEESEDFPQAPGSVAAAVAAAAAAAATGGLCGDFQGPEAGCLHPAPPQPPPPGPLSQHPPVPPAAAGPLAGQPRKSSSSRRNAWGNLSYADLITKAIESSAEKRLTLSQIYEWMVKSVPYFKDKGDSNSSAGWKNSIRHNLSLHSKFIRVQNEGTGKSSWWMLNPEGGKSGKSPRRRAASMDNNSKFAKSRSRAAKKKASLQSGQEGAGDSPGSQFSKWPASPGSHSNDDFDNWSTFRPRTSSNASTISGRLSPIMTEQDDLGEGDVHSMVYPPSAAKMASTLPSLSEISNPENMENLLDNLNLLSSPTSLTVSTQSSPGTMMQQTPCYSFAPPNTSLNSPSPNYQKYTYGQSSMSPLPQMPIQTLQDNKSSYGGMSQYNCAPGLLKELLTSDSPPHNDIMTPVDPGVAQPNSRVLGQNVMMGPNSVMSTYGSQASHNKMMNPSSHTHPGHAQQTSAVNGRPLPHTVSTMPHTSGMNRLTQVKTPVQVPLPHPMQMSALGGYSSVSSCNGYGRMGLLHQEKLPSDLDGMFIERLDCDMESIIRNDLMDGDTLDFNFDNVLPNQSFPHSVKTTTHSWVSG

Molecular target: T1, ETS1 transcription factor (endogenous, FP-RMS cells) (human (endogenous in Rh30 and Rh41)) (UniProt P14921)
T1 sequence: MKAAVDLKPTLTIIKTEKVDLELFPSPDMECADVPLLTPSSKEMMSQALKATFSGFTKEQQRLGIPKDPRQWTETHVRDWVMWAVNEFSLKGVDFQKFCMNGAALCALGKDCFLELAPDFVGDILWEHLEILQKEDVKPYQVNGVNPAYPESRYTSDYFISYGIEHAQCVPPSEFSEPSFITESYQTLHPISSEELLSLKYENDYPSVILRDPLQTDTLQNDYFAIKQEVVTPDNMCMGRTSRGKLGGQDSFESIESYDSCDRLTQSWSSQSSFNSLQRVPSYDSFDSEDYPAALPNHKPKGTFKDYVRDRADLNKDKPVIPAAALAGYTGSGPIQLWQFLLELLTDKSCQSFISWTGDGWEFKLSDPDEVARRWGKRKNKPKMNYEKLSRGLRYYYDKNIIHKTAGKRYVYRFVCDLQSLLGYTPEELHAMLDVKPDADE
Assay: co-IP; endogenous proteins from Rh30 and Rh41 cells, IP with ETS1 antibody (rabbit IgG as negative control), immunoblot; also with Ethidium Bromide or Benzonase in the IP; also cells pre-treated 16 hours with 1 µM YK-4-279 or DMSO and the same included in the IP reaction, recovery by densitometry normalized to ETS1

binding: binds
Substance: FOXO1 (endogenous, FP-RMS cells) (from UniProt Q12778 1-655)
